Data from US11339419B2, “Scavenger protein(s) for improved preservation of analyte detection sensor(s) and method(s) of use thereof” (Siemens Healthcare Diagnostics Inc., priority 2017, dated 2022).
Values joined by “and” are separate entries in the source; they are usually repeats but may differ in a detail not shown here. Equal values may be shown once. Further values from the same series stand in other lists.

Columns and labels:
Type in all cases: biochemical
[1] = test system: creatininase (Toyobo); assay: Toyobo Creatininase Enzyme Absorbance with BSA and MIT; conditions: Day 14; 50 mg/mL BSA, no MIT (row of 100 ppm MIT)
[2] = test system: creatininase (Toyobo); assay: Toyobo Creatininase Enzyme Absorbance with BSA and Proclin 300; conditions: no Proclin 300
Excerpt: (§1) Absorbance measurements of the creatininase enzyme(s) were taken via spectrophotometer for each aqueous solution (represented as columns 1-5 in Tables 5-8—column 6 is a blank), the absorbance being directly proportional to the enzyme activity being measured-which for Tables 5-8 is creatininase enzyme activity. Accordingly, the higher the absorbance measurement, the higher the enzyme activity of creatininase. […] In addition, the mean values, standard deviations, and coefficients of variation are all presented for the enzyme activity/absorbance of each aqueous solution. All measurements were taken at 37° C.

[3] = test system: sarcosine oxidase (Toyobo); assay: Toyobo Sarcosine Oxidase Enzyme Absorbance with BSA and MIT; conditions: 37° C.
[4] = test system: sarcosine oxidase (Toyobo); assay: Toyobo Sarcosine Oxidase Enzyme Absorbance with BSA and Proclin 300; conditions: no Proclin 300
Excerpt: as §1, with “sarcosine oxidase” for “creatininase”, “1-4—column” for “5-8—column”, “1-4” for “5-8”, “sarcosine oxidase.” for “creatininase.”, “also” for “all”

For bovine serum albumin [BSA], which “Creatininase Enzyme Absorbance, columns 7-11” value [1] is on record?
The value was 0.8 and 0.789 and 0.756 and 0.778 and 0.774.

What about the “Absorbance, solutions 7-11” value ([2]; Day 0, BSA 5 mg/mL only, listed as of 0.7% Proclin 300) of the same substance?
Its value is 0.71 and 0.679 and 0.724 and 0.734.

And the “Absorbance, solutions 7-11” value ([2]; Day 0, BSA 5 mg/mL only, listed as of 1.4% Proclin 300)?
The value was 0.571.

What about the “Absorbance, solutions 7-11” value ([2]; Day 0, BSA 25 mg/mL only, listed as of 0.7% Proclin 300) of the same substance?
Its value is 0.49 and 0.506 and 0.514 and 0.499.

And the “Absorbance, solutions 7-11” value ([2]; Day 0, BSA 25 mg/mL only, listed as of 1.4% Proclin 300)?
The value was 0.529.

What about the “Absorbance, solutions 7-11” value ([2]; Day 0, BSA 50 mg/mL only, listed as of 0.7% Proclin 300) of the same substance?
Its value is 1.685 and 1.801 and 1.683 and 1.36.

And the “Absorbance, solutions 7-11” value ([2]; Day 0, BSA 50 mg/mL only, listed as of 1.4% Proclin 300)?
The value was 0.524 and 0.507.

And the “Absorbance, solutions 7-11” value ([2]; Day 4, BSA 5 mg/mL only, listed as of 0.7% Proclin 300)?
The value was 1.095 and 1.072 and 1.093 and 1.13 and 1.104.

What about the “Absorbance, solutions 7-11” value ([2]; Day 4, BSA 5 mg/mL only, listed as of 1.4% Proclin 300) of the same substance?
Its value is 1 and 0.988 and 0.984 and 1.036 and 1.006.

And the “Absorbance, solutions 7-11” value ([2]; Day 4, BSA 25 mg/mL only, listed as of 0.7% Proclin 300)?
The value was 0.934 and 0.899 and 0.904 and 0.92 and 0.891.

And the “Absorbance, solutions 7-11” value ([2]; Day 4, BSA 25 mg/mL only, listed as of 1.4% Proclin 300)?
Its value is 0.872 and 0.841 and 0.896 and 0.856.

And the “Absorbance, solutions 7-11” value ([2]; Day 4, BSA 50 mg/mL only, listed as of 0.7% Proclin 300)?
Its value is 0.781 and 0.761 and 0.765 and 0.817 and 0.784.

What about the “Absorbance, solutions 7-11” value ([2]; Day 4, BSA 50 mg/mL only, listed as of 1.4% Proclin 300) of the same substance?
The value was 0.763 and 0.762 and 0.756 and 0.807.

What about the “Absorbance, solutions 7-11” value ([2]; Day 14, BSA 5 mg/mL only, listed as of 0.7% Proclin 300) of the same substance?
The value was 1.14 and 1.136 and 1.128 and 1.161 and 1.141.

And the “Absorbance, solutions 7-11” value ([2]; Day 14, BSA 5 mg/mL only, listed as of 1.4% Proclin 300)?
The value was 1.137 and 1.102 and 1.097 and 1.154 and 1.116.

What about the “Absorbance, solutions 7-11” value ([2]; Day 14, BSA 25 mg/mL only, listed as of 0.7% Proclin 300) of the same substance?
Its value is 0.937 and 0.925 and 0.941.

And the “Absorbance, solutions 7-11” value ([2]; Day 14, BSA 25 mg/mL only, listed as of 1.4% Proclin 300)?
The value was 0.935 and 0.921 and 0.928 and 0.947 and 0.932.

What about the “Absorbance, solutions 7-11” value ([2]; Day 14, BSA 50 mg/mL only, listed as of 1.4% Proclin 300) of the same substance?
Its value is 0.78 and 0.776 and 0.779 and 0.806 and 0.797.

And the “Sarcosine Oxidase Enzyme Absorbance, solutions 1-5” value (“Sarcosine Oxidase Enzyme Absorbance” below) ([3]; Day 0, 50 ppm MIT, 50 mg/mL BSA)?
The value was 1.396 and 1.415.

And the “Sarcosine Oxidase Enzyme Absorbance” value ([3]; Day 0, 100 ppm MIT, 5 mg/mL BSA)?
Its value is 1.437 and 1.434 and 1.433 and 1.43 and 1.438.

What about the “Sarcosine Oxidase Enzyme Absorbance” value ([3]; Day 0, 100 ppm MIT, 25 mg/mL BSA) of the same substance?
Its value is 1.39 and 1.415 and 1.41 and 1.434.

And the “Sarcosine Oxidase Enzyme Absorbance” value ([3]; Day 0, 100 ppm MIT, 50 mg/mL BSA)?
Its value is 1.393 and 1.406 and 1.419 and 1.417.

What about the “Sarcosine Oxidase Enzyme Absorbance” value ([3]; Day 4, 50 ppm MIT, 5 mg/mL BSA) of the same substance?
Its value is 0.898 and 0.904 and 0.884 and 0.886 and 0.897.

What about the “Sarcosine Oxidase Enzyme Absorbance” value ([3]; Day 4, 50 ppm MIT, 25 mg/mL BSA) of the same substance?
The value was 1.409 and 1.394 and 1.393 and 1.392 and 1.395.

What about the “Sarcosine Oxidase Enzyme Absorbance” value ([3]; Day 4, 50 ppm MIT, 50 mg/mL BSA) of the same substance?
Its value is 1.448 and 1.395 and 1.409 and 1.475 and 1.415.

What about the “Sarcosine Oxidase Enzyme Absorbance” value ([3]; Day 4, 100 ppm MIT, 5 mg/mL BSA) of the same substance?
Its value is 0.952 and 0.938 and 0.967 and 0.949 and 0.972.

What about the “Sarcosine Oxidase Enzyme Absorbance” value ([3]; Day 4, 100 ppm MIT, 25 mg/mL BSA) of the same substance?
Its value is 1.389 and 1.375 and 1.401 and 1.379 and 1.381.

What about the “Sarcosine Oxidase Enzyme Absorbance” value ([3]; Day 4, 100 ppm MIT, 50 mg/mL BSA) of the same substance?
Its value is 1.412 and 1.401 and 1.39 and 1.416 and 1.405.

What about the “Sarcosine Oxidase Enzyme Absorbance” value ([3]; Day 14, 50 ppm MIT, 5 mg/mL BSA) of the same substance?
The value was 0.324 and 0.328 and 0.323 and 0.332 and 0.343.

And the “Sarcosine Oxidase Enzyme Absorbance” value ([3]; Day 14, 50 ppm MIT, 25 mg/mL BSA)?
The value was 1.427 and 1.41 and 1.42 and 1.457.

What about the “Sarcosine Oxidase Enzyme Absorbance” value ([3]; Day 14, 50 ppm MIT, 50 mg/mL BSA) of the same substance?
Its value is 1.474 and 1.448 and 1.445 and 1.478 and 1.48.

And the “Sarcosine Oxidase Enzyme Absorbance” value ([3]; Day 14, 100 ppm MIT, 5 mg/mL BSA)?
Its value is 0.35 and 0.353 and 0.356 and 0.347.

What about the “Sarcosine Oxidase Enzyme Absorbance” value ([3]; Day 14, 100 ppm MIT, 25 mg/mL BSA) of the same substance?
Its value is 1.468 and 1.449 and 1.465 and 1.427 and 1.445.

What about the “Sarcosine Oxidase Enzyme Absorbance” value ([3]; Day 14, 100 ppm MIT, 50 mg/mL BSA) of the same substance?
Its value is 1.46 and 1.461 and 1.467 and 1.462 and 1.475.

What about the “Absorbance, solutions 7-11” value ([4]; Day 0, BSA 5 mg/mL only, line of 0.7% Proclin 300) of the same substance?
Its value is 1.435 and 1.447 and 1.457.

What about the “Absorbance, solutions 7-11” value ([4]; Day 0, BSA 5 mg/mL only, line of 1.4% Proclin 300) of the same substance?
The value was 1.389.

And the “Absorbance, solutions 7-11” value ([4]; Day 0, BSA 25 mg/mL only, line of 0.7% Proclin 300)?
The value was 1.453 and 1.459 and 1.44.

And the “Absorbance, solutions 7-11” value ([4]; Day 0, BSA 50 mg/mL only, line of 0.7% Proclin 300)?
Its value is 1.427 and 1.431 and 1.446 and 1.465.

And the “Absorbance, solutions 7-11” value ([4]; Day 0, BSA 50 mg/mL only, line of 1.4% Proclin 300)?
The value was 1.448 and 1.396.

And the “Absorbance, solutions 7-11” value ([4]; Day 4, BSA 5 mg/mL only, line of 0.7% Proclin 300)?
The value was 0.829 and 0.849 and 0.854 and 0.875 and 0.878.

And the “Absorbance, solutions 7-11” value ([4]; Day 4, BSA 5 mg/mL only, line of 1.4% Proclin 300)?
The value was 0.894 and 0.884 and 0.896 and 0.908 and 0.935.

What about the “Absorbance, solutions 7-11” value ([4]; Day 4, BSA 25 mg/mL only, line of 0.7% Proclin 300) of the same substance?
Its value is 1.337 and 1.353 and 1.354 and 1.335 and 1.33.

What about the “Absorbance, solutions 7-11” value ([4]; Day 4, BSA 25 mg/mL only, line of 1.4% Proclin 300) of the same substance?
The value was 1.352 and 1.372 and 1.385 and 1.362 and 1.354.

What about the “Absorbance, solutions 7-11” value ([4]; Day 4, BSA 50 mg/mL only, line of 0.7% Proclin 300) of the same substance?
Its value is 1.354 and 1.352 and 1.35 and 1.339 and 1.371.

And the “Absorbance, solutions 7-11” value ([4]; Day 4, BSA 50 mg/mL only, line of 1.4% Proclin 300)?
Its value is 1.355 and 1.369 and 1.383 and 1.36 and 1.362.

And the “Absorbance, solutions 7-11” value ([4]; Day 14, BSA 5 mg/mL only, line of 0.7% Proclin 300)?
The value was 0.288 and 0.295 and 0.302 and 0.314 and 0.303.

And the “Absorbance, solutions 7-11” value ([4]; Day 14, BSA 5 mg/mL only, line of 1.4% Proclin 300)?
Its value is 0.318 and 0.317 and 0.316 and 0.331 and 0.403.

What about the “Absorbance, solutions 7-11” value ([4]; Day 14, BSA 25 mg/mL only, line of 0.7% Proclin 300) of the same substance?
The value was 1.371 and 1.421 and 1.363 and 1.372 and 1.401.

What about the “Absorbance, solutions 7-11” value ([4]; Day 14, BSA 25 mg/mL only, line of 1.4% Proclin 300) of the same substance?
Its value is 1.357 and 1.368 and 1.435 and 1.372 and 1.399.

And the “Absorbance, solutions 7-11” value ([4]; Day 14, BSA 50 mg/mL only, line of 0.7% Proclin 300)?
The value was 1.445 and 1.544 and 1.434 and 1.475 and 1.436.

What about the “Absorbance, solutions 7-11” value ([4]; Day 14, BSA 50 mg/mL only, line of 1.4% Proclin 300) of the same substance?
Its value is 1.437 and 1.432 and 1.429 and 1.445 and 1.436.
